{
  "source": "patent EP3025717A1",
  "about": "“SYNERGISTIC PHARMACEUTICAL COMPOSITION OF TWO ANALGESICS HAVING A DISTINCT PHARMACOKINETIC PROFILE” (FARMACÉUTICOS RAYERE, S.A., priority 2013, dated 2014)",
  "origin": "cited, not measured here",
  "settings": "oral administration; cited from earlier work",
  "note": "The name of at least one read-out is uncertain.",
  "data": [
    {"smiles": "Cc1cnc(NC(=O)C2=C(O)c3ccccc3S(=O)(=O)N2C)s1", "note": "[MXC, 4-hydroxy-2-methyl-N-(5-methyl-2-thiazolyl)-2H-1,2-benzothiazine-3-carboxamide-1,1-dioxide]", "values": [
      {"measurement": "second peak of maximum concentration (gastrointestinal recirculation)", "result": "12 to 14", "unit": "h"}
    ]}
  ]
}
